# Measured values: patent US7658727B1, “Implantable medical device with enhanced biocompatibility and biostability” (Medtronic, Inc, priority 1998, dated 2010)
# Test system: human Mo/MØs
# Assay: Polymer hydroperoxide (ROOH) determination by iodometry after macrophage treatment
# Format: cell-based
# Conditions: AS PEU specimens, Mo/MØs plus DSP at 0.024 and 240 μg/ml
# Procedure: Macrophage Treatment. The PEU film specimens (AS and non-AS) in the microwell plates were covered with either freshly isolated human or rabbit monocyte-derived macrophage (Mo/MØs), or human lymphocytes (3×10^5 cells per well) and cultured in a standard media (RPMI-1640, 10% Fetal bovine serum, […], 10 Ul/ml Penicillin-G and 0.1 mg/ml Streptomycin). A 49-day macrophage treatment was conducted under standard conditions (i.e., presence of 5% CO2, and 95% humidity at 37° C.). Other experimental variations included adding dexamethasone sodium phosphate (DSP) at 0.024 μg/ml and 240 μg/ml concentrations to the culture media in the microwells. Two blank conditions were also studied. In one, culture media only was placed into the microwells. The other was prepared with no culture media and stored in the dark. All polymer specimens were incubated for the time of the first treatment. Samples in triplicate were removed after various time periods for hydroperoxide determination. […]
# Polymer specimens taken at various time periods during the macrophage treatment step were sonicated for 15 minutes in distilled water, rinsed three times, and dried at 25° C. for 4 hours. […] The resulting triiodide complex (I3^−) was measured spectrophotometrically at 360 nm λ with a Beckman DU-8 spectrophotometer (Beckman Instruments, Irvine, Calif.). […]
structure (smiles),measurement,value
"C[C@@H]1C[C@H]2[C@@H]3CCC4=CC(=O)C=C[C@]4(C)[C@@]3(F)[C@@H](O)C[C@]2(C)[C@@]1(O)C(=O)COP(=O)(O)O [DSP, dexamethasone sodium phosphate]",hydroperoxide concentration in polymer specimens,significantly lower hydroperoxide concentrations
